Data on 1 substance can be found in paper PMC8520724.

The chains behind the UniProt entries cited, without tags or fusion partners.
UniProt Q96EB6: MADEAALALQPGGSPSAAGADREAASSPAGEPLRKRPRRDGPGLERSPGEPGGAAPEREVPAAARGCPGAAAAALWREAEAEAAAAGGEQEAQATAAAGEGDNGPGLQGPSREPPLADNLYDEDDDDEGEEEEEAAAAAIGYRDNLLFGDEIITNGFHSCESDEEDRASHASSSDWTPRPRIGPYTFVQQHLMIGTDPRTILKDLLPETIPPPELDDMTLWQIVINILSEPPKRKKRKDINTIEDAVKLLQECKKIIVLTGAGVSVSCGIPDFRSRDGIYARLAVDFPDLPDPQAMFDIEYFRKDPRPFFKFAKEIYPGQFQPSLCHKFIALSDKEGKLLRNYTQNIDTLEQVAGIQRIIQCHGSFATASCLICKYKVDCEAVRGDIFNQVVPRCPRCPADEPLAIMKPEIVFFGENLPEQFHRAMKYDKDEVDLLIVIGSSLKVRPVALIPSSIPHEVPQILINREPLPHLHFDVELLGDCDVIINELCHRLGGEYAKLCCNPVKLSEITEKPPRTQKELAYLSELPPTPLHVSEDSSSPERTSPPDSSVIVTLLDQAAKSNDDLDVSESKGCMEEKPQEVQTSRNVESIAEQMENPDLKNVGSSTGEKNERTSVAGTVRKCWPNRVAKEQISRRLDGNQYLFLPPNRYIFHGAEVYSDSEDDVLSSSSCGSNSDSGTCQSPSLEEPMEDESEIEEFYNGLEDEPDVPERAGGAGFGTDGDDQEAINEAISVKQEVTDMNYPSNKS
UniProt P08670: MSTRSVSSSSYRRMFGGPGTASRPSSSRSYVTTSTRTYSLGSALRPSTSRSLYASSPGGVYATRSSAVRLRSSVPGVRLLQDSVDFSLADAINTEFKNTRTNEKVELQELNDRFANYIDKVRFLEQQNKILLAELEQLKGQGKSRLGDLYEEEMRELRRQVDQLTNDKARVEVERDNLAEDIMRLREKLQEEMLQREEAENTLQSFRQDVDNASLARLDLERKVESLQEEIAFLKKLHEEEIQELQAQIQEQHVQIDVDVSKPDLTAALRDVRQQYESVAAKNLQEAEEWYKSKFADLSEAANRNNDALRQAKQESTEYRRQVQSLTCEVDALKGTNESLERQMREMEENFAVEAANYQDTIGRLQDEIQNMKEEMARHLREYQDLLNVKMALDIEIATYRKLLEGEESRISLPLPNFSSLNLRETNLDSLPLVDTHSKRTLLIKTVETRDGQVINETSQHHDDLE

Results are given in words; binding and its absence hold for the method and conditions named. Binding seen in cells or lysates may run through a third protein. A yes stands for co-enrichment or nearness to the bait. Other partners may have been found.

The target in the assay is SIRT1 (human (endogenous in HTR8/SVneo cells and human first-trimester villi)) (UniProt Q96EB6). As to the kind of experiment: affinity purification with mass spectrometry; IP of endogenous SIRT1 (anti-SIRT1 on Protein A/G magnetic beads, 8 h at 4°C) from lysates of HTR8/SVneo cells and of human first-trimester villi in IP lysis buffer; matched IgG isotype control; SDS-PAGE, in-gel tryptic digestion, LC-MS/MS.

For vimentin (from UniProt P08670 1-466), the binding entry is listed as “binds”.
